Measurements taken from publication PMC5996148.
The other results are listed elsewhere or left out.

Columns and labels:
Assay in all cases: protein microarray (ProtoArray v5.0), streptavidin-Alexa Fluor 647
Conditions in all cases: 3'-biotin; 20 mM Tris (pH 7.5), 5 mM MgCl2, 100 mM KCl, 0.1% Tween-20, A/T-rich and random oligonucleotide blockers; temperature not stated; high values mean tight binding
Cytoglobin (human) = tested on: Cytoglobin (human)
[1] = tested on: Cytoplasmic dynein 1 heavy chain 1 (human)
[2] = tested on: Cytosol aminopeptidase (human)
[3] = tested on: Cytosolic non-specific dipeptidase (human)
[4] = tested on: Cytosolic phospholipase A2 gamma (human)
D-aspartate (human) = tested on: D-aspartate (human)
DAO (human) = tested on: DAO (human)
DAP3 (human) = tested on: DAP3 (human)
[5] = tested on: DAZ-associated protein 2 (human)
DBI (human) = tested on: DBI (human)
DBNDD1 (human) = tested on: DBNDD1 (human)
DBNDD2 (human) = tested on: DBNDD2 (human)
DC2 (human) = tested on: DC2 (human)
DCI (human) = tested on: DCI (human)
[6] = tested on: DCN1-like protein 1 (human)
DCPS (human) = tested on: DCPS (human)
DCTD (human) = tested on: DCTD (human)
DCTN2 (human) = tested on: DCTN2 (human)
DCTN3 (human) = tested on: DCTN3 (human)
DCUN1D3 (human) = tested on: DCUN1D3 (human)

For “GGGAGGCTGAGGCAGG [G4-1 biotinylated (PQS2)]”, the binding signal (Cytoglobin (human)) was -0.335 z-score, the binding signal [1] was -0.349 z-score and the binding signal [2] was -0.311 z-score. The binding signal [3] was -0.353 z-score, the binding signal [4] was -0.308 z-score and the binding signal (D-aspartate (human)) was -0.254 z-score. It also gave a binding signal (DAO (human)) of -0.316 z-score, a binding signal (DAP3 (human)) of -0.298 z-score and a binding signal [5] of -0.339 z-score. For the same sequence, the binding signal (DBI (human)) was -0.325 z-score, the binding signal (DBNDD1 (human)) was -0.341 z-score and the binding signal (DBNDD2 (human)) was -0.356 z-score. The binding signal (DC2 (human)) was -0.273 z-score, the binding signal (DCI (human)) was -0.298 z-score and the binding signal [6] was -0.335 z-score. The binding signal (DCPS (human)) was -0.336 z-score, the binding signal (DCTD (human)) was -0.331 z-score and the binding signal (DCTN2 (human)) was -0.356 z-score. The binding signal (DCTN3 (human)) was -0.337 z-score and the binding signal (DCUN1D3 (human)) was -0.366 z-score.
